The results in this text go back to PMC10031136.

Sequences of proteins named here, by UniProt entry; tags and fusion partners are left off.
UniProt Q9QUR7: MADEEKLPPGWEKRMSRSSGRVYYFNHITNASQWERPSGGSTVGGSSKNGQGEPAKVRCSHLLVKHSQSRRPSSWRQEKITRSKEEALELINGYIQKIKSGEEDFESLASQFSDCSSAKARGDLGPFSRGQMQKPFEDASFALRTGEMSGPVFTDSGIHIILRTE
UniProt Q02111: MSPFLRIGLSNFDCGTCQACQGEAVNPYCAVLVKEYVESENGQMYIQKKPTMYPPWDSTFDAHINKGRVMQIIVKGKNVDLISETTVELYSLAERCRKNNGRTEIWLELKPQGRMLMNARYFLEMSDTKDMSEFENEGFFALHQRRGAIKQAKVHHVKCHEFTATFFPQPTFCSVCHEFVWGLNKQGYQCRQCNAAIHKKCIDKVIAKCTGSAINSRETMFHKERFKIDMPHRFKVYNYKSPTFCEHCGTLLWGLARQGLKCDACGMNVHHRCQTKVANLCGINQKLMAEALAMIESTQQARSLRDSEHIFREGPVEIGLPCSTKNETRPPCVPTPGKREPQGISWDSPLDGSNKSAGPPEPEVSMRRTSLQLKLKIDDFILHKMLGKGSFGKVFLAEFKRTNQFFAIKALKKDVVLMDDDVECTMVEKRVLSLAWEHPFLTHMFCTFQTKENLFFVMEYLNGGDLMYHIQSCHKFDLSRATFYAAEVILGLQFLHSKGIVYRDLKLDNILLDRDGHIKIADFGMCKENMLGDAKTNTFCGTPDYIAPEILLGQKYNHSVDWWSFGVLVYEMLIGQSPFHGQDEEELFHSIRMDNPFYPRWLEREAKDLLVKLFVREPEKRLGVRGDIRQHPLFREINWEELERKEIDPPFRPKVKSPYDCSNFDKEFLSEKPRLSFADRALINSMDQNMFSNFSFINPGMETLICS

Assay [1] concerns the target Pin1 (endogenous in C57BL/6J mouse T cells) (mouse (endogenous in C57BL/6J splenic and thymic T cells)) (UniProt Q9QUR7). The assay can be described thus: co-IP; Pin1 immunoprecipitation from lysates of C57BL/6J splenic T cells activated with anti-CD3ε mAbs (2C11) for 0-5 min or 0-30 min; immunoblot for PKCθ. (In western blotting, separated proteins are transferred to a membrane and probed.)

For assay [2] the target is unchanged. Kind of assay: co-IP; Pin1 immunoprecipitation from lysates of C57BL/6J thymic T cells activated with anti-CD3ε mAb (2C11) for 0-30 min; immunoblot for PKCθ.

These are yes or no findings as the source states them, for the method shown. Binding seen in cells or lysates may run through a third protein. Some entries that bind do so weakly or less than the wild type.

On to “Protein kinase C θ (endogenous in C57BL/6J mouse T cells) (from UniProt Q02111 1-707) (enzyme)”, for which the binding entry in assay [1] and in assay [2] was “binds” each time.
